In PubChem BioAssay AID192 (DTP/NCI, 2004):
The list does not hold the whole screen: it is rich in T/C values a quarter to a half above the control, in often repeated tests (any T/C) and in doses without a T/C. Further doses and runs are listed elsewhere. T/C is the treated group as % of the vehicle group. Some entries give survivors of the animals treated and no T/C: the source holds a T/C of zero for them, seemingly a mark for toxic or unscored doses. Some survivor counts are full or nearly so, which does not show that the dose was tolerated: survival well below the control is almost never listed, so the zero probably covers shortened survival too. Counts of survivors are from the toxicity check (mostly the fifth day) where no day follows; animals may have died later. Schedules are NCI's codes, read here as Q, the interval in days (D) or hours (H), X, the number of doses. For survival time, the PubChem record calls one and a half times the control and up active, and a quarter to a half above the control has no call in these data; cut-offs in other NCI protocols can differ. Some T/C values are followed by the survivors on the day toxicity was checked, most often the fifth; without a count, all were alive then. Some doses were run more than once; the results are listed from low to high. Signs of the kind (2×) count equal records among those shown.

System: BDF1 mice, B16 melanoma ip, median survival T/C
Assay: NCI In Vivo Anticancer Drug Screen. Data for tumor model B16 Melanoma (intraperitoneal) in B6D2F1 (BDF1) mice
Conditions: T/C endpoint: median survival time, higher T/C = longer survival
Outline: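 Survival or tumor size is measured after treatment of tumor-bearing mice and normalised to the vehicle-treated control group.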

COc1cccc2c1C(=O)c1c(O)c3c(c(O)c1C2=O)C[C@@](O)(C(=O)CO)C[C@@H]3OC1CC(N)C(O)C(C)O1 (stereo not given in full)
T/C (dose: 0.06 mg/kg/injection, schedule: Q01DX009 (ip), vehicle: saline, evaluated on day 5): 135, 149, 180 % of control
T/C (dose: 0.06 mg/kg/injection, schedule: Q01DX009 (ip), vehicle: saline, evaluated on day 45): 131 % of control
T/C (dose: 0.06 mg/kg/injection, schedule: Q01DX009 (ip), vehicle: saline, evaluated on day 90): 149 and 180 % of control
T/C (dose: 0.13 mg/kg/injection, schedule: Q01DX001 (ip), vehicle: saline, evaluated on day 5): 140 and 142 % of control
T/C (dose: 0.13 mg/kg/injection, schedule: Q01DX001 (ip), vehicle: saline, evaluated on day 45): 141 % of control
T/C (dose: 0.13 mg/kg/injection, schedule: Q01DX001 (ip), vehicle: saline, evaluated on day 60): 136 % of control
T/C (dose: 0.13 mg/kg/injection, schedule: Q01DX009 (ip), vehicle: saline, evaluated on day 5): 166, 169, 207 % of control
T/C (dose: 0.13 mg/kg/injection, schedule: Q01DX009 (ip), vehicle: saline, evaluated on day 45): 163 % of control
T/C (dose: 0.13 mg/kg/injection, schedule: Q01DX009 (ip), vehicle: saline, evaluated on day 60): 157 % of control
T/C (dose: 0.13 mg/kg/injection, schedule: Q01DX009 (ip), vehicle: saline, evaluated on day 90): 166 and 207 % of control
T/C (dose: 0.25 mg/kg/injection, schedule: Q01DX001 (ip), vehicle: saline, evaluated on day 5): 144 and 154 % of control
T/C (dose: 0.25 mg/kg/injection, schedule: Q01DX001 (ip), vehicle: saline, evaluated on day 45): 143 % of control
T/C (dose: 0.25 mg/kg/injection, schedule: Q01DX001 (ip), vehicle: saline, evaluated on day 60): 153 % of control
T/C (dose: 0.25 mg/kg/injection, schedule: Q01DX009 (ip), vehicle: saline, evaluated on day 5): 179, 184, 295 % of control
T/C (dose: 0.25 mg/kg/injection, schedule: Q01DX009 (ip), vehicle: saline, evaluated on day 45): 175 % of control
T/C (dose: 0.25 mg/kg/injection, schedule: Q01DX009 (ip), vehicle: saline, evaluated on day 60): 133, 138, 140, 152, 163, 186, 187, 189, 191 (2×), 193 (2×), 204, 211, 226 [9 of 10 alive], 236, 308 % of control
T/C (dose: 0.25 mg/kg/injection, schedule: Q01DX009 (ip), vehicle: saline, evaluated on day 90): 184 and 295 % of control
survivor count (dose: 0.25 mg/kg/injection, schedule: Q01DX009 (ip), vehicle: saline): 10 of 10
T/C (dose: 0.25 mg/kg/injection, schedule: Q03HX008 (ip), vehicle: saline): 133 % of control
T/C (dose: 0.37 mg/kg/injection, schedule: Q01DX009 (ip), vehicle: saline): 131 % of control
T/C (dose: 0.5 mg/kg/injection, schedule: Q01DX001 (ip), vehicle: saline, evaluated on day 5): 160 and 203 % of control
T/C (dose: 0.5 mg/kg/injection, schedule: Q01DX001 (ip), vehicle: saline, evaluated on day 45): 200 % of control
T/C (dose: 0.5 mg/kg/injection, schedule: Q01DX001 (ip), vehicle: saline, evaluated on day 60): 160 % of control
T/C (dose: 0.5 mg/kg/injection, schedule: Q01DX009 (ip), vehicle: saline, evaluated on day 5): 179 (2×) and 491 % of control
T/C (dose: 0.5 mg/kg/injection, schedule: Q01DX009 (ip), vehicle: saline, evaluated on day 45): 175 % of control
T/C (dose: 0.5 mg/kg/injection, schedule: Q01DX009 (ip), vehicle: saline, evaluated on day 60): 134, 156, 165, 181, 213, 216, 218, 220, 224, 225, 241 [8 of 10 alive], 262, 272, 283, 288, 299, 303, 310, 313, 321 % of control
T/C (dose: 0.5 mg/kg/injection, schedule: Q01DX009 (ip), vehicle: saline, evaluated on day 90): 179 and 491 % of control
survivor count (dose: 0.5 mg/kg/injection, schedule: Q01DX009 (ip), vehicle: saline): 10 of 10
T/C (dose: 0.5 mg/kg/injection, schedule: Q04DX003 (ip), vehicle: saline, evaluated on day 8): 125 % of control
T/C (dose: 0.5 mg/kg/injection, schedule: Q04DX003 (ip), vehicle: saline, evaluated on day 60): 111, 158, 176 % of control
T/C (dose: 0.75 mg/kg/injection, schedule: Q01DX001 (ip), vehicle: saline): 127 % of control
T/C (dose: 0.75 mg/kg/injection, schedule: Q04DX003 (ip), vehicle: saline): 145 % of control
T/C (dose: 1.0 mg/kg/injection, schedule: Q01DX001 (ip), vehicle: saline, evaluated on day 5): 217 and 275 % of control
T/C (dose: 1.0 mg/kg/injection, schedule: Q01DX001 (ip), vehicle: saline, evaluated on day 45): 219 % of control
T/C (dose: 1.0 mg/kg/injection, schedule: Q01DX001 (ip), vehicle: saline, evaluated on day 60): 260 % of control
T/C (dose: 1.0 mg/kg/injection, schedule: Q01DX001 (ip), vehicle: water, evaluated on day 40): 118 % of control
T/C (dose: 1.0 mg/kg/injection, schedule: Q01DX001 (ip), vehicle: water, evaluated on day 45): 101 [9 of 10 alive], 112, 142 % of control [9 of 10 alive]
T/C (dose: 1.0 mg/kg/injection, schedule: Q01DX001 (ip), vehicle: water, evaluated on day 50): 132 % of control
T/C (dose: 1.0 mg/kg/injection, schedule: Q01DX001 (ip), vehicle: water, evaluated on day 60): 117, 132, 134, 138, 144, 148 (2×), 154 (2×), 161 (2×), 164, 170, 171, 173, 174, 175, 177, 178, 180 (2×), 182, 185, 188, 189, 190, 191, 192, 193, 196, 206, 207, 218, 225, 226, 236 % of control (2×)
T/C (dose: 1.0 mg/kg/injection, schedule: Q01DX009 (ip), vehicle: saline, evaluated on day 5): 216, 434, 491 % of control
